The assay has as its target T1, Kibra (Kib) (Drosophila) (UniProt Q9VFG8).
T1 sequence: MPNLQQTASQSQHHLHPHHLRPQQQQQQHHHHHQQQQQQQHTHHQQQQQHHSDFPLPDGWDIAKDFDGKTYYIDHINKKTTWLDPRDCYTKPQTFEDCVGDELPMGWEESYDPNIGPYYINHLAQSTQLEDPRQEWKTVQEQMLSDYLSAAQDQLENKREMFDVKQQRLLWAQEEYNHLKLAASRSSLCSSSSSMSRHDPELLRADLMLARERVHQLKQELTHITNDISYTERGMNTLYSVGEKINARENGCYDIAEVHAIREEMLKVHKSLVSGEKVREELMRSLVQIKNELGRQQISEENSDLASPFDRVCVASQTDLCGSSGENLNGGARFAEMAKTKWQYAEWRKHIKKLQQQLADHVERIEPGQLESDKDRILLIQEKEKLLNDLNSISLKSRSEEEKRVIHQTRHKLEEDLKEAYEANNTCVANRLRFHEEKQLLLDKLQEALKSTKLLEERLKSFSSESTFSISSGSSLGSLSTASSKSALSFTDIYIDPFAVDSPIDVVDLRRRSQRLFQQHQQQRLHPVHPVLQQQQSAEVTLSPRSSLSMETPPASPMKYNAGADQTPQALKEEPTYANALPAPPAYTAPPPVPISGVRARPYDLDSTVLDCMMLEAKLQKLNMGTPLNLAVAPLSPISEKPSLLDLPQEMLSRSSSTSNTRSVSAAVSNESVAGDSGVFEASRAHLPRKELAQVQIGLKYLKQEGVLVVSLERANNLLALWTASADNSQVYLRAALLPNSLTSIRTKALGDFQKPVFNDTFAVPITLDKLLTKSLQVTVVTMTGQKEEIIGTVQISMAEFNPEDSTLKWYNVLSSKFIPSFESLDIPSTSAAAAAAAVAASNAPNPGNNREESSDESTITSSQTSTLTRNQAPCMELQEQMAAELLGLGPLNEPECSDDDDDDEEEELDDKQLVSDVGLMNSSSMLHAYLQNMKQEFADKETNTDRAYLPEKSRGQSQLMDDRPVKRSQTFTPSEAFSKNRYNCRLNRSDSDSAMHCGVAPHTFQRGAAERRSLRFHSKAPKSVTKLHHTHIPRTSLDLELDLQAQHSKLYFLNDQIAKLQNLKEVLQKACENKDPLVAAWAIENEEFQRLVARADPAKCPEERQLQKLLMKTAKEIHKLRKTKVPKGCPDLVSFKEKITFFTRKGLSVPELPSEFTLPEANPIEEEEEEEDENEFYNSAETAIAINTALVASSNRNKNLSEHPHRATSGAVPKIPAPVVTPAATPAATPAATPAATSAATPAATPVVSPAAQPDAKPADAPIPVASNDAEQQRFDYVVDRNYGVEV
Description: co-IP; S2 cells transfected with the tagged constructs; lysis in 50 mM Tris pH 7.5, 150 mM NaCl, 1% Triton X-100, 10% glycerol, 1 mM EDTA with phosphatase and protease inhibitors; FLAG-tagged proteins on anti-FLAG M2 agarose 1-2 h at 4 °C, eluted with 3x FLAG peptide; immunoblot (Figures EV3G,H, EV5C-E, 5B-D). For orientation: A western blot detects proteins with antibodies after separation by electrophoresis.

No constants are given. Whether binding was seen depends on the method and setting. In cells and extracts the contact can be indirect. Binding calls can cover weak binding; strength is not graded here.

As to “Well-rounded (Wrd), PP2A B' regulatory subunit (Drosophila)”, the binding result is listed as “binds”.

The record behind these values is PMC13482807.
